Reference: doi:10.1101/2021.03.22.436362
Where a chain is given by its changes, count along the chain named. In names and notes the source's numbering stands. Results are given in words; binding and its absence hold for the method and conditions named. Binding seen in cells or lysates may run through a third protein. Some binding calls cover weakened binding; strength is not graded here. For some assays here: Tags and fused reporters may be left off the sequences shown. Blank lines part the entries; values can stand above or below the binder they belong to.

Experiments:
[1] = molecular target: T1, δ-COP (BiFC fusion) (Arabidopsis thaliana) (UniProt Q93Y22); assay: split reporter
T1 sequence: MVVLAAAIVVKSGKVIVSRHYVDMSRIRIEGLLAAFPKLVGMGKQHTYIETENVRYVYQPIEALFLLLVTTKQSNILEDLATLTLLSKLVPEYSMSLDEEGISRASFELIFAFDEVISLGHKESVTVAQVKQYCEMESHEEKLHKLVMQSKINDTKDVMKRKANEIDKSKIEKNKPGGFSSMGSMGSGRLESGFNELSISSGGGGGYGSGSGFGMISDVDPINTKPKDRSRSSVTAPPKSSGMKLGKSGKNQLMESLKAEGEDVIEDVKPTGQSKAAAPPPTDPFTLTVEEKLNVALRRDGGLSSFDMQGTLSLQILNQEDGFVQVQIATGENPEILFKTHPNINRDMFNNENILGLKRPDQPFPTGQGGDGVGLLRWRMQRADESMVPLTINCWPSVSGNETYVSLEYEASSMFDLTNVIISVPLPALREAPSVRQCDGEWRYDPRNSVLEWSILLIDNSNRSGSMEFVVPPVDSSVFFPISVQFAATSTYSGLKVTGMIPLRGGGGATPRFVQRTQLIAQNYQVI

[2] = molecular target: T2, ERH1:Venus-N (Arabidopsis thaliana) (UniProt Q9SH93); assay: split reporter
T2 sequence: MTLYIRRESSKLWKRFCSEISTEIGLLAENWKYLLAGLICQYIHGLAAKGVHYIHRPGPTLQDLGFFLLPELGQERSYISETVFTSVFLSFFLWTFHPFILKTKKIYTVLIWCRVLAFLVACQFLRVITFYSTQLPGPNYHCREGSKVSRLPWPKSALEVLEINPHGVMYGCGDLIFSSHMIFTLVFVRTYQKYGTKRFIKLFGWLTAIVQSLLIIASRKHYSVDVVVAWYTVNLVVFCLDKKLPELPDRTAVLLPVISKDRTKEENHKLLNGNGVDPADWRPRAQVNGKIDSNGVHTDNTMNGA

[3] = molecular target: T3, Myc:ERH1 (Arabidopsis thaliana) (UniProt Q9SH93); assay: co-IP
T3 sequence: T2 sequence

binding [1]: binds
binding [2]: binds
B1: α1-COP:Venus-C (protein, UniProt Q94A40 1-1216)
chain: MLTKFETKSNRVKGLSFHPKRPWILASLHSGVIQLWDYRMGTLIDRFDEHEGPVRGVHFHNSQPLFVSGGDDYKIKVWNYKNHRCLFTLLGHLDYIRTVQFHHEYPWIVSASDDQTIRIWNWQSRTCVSVLTGHNHYVMCASFHPKEDLVVSASLDQTVRVWDIGALRKKTVSPADDIMRLTQMNSDLFGGVDAIVKYVLEGHDRGVNWAAFHPTLPLIVSGADDRQVKLWRMNETKAWEVDTLRGHMNNVSSVMFHAKQDIIVSNSEDKSIRVWDATKRTGLQTFRREHDRFWILAVHPEMNLLAAGHDSGMIVFKLERERPAFALSGDSLFYAKDRFLRYYEYSTQRDSQVIPIRRPGTPSLNQSPRTLSYSPTENAVLICSDLDGGSYELYIIPKDSVGRSDVVQDAKRGTGGSAVFIARNRFAVLEKSTSQVLVKNLKNEVVKKSPLPIPTDAIFYAGTGNLLCRSEDKVVIFDLQQRLVLGELQTPFVRYVVWSSDMESVALLSKHTIIIASKKLVLQCTLHETIRVKSGAWDDNGVFIYTTLNHIKYCLPNGDSGIIRTLDVPIYITKVSGNTIFCLDRDGKNKAITINATEYIFKLSLLRKRYDHVMSMIKNSQLCGQAMIAYLQQKGFPEVALHFVEDERIRFNLALESGNISVAVASATQINEKDHWYRLGVEALRQGNSGIVEFAYQQTKNFERLSFLYLITGNLDKLSKLMKIAEVKNNVMGQFHNALYLGDVKERVKILENAGHLPLAYITASVHGLNDIAERLATELGDNVPSLPEGKTPSLLMPPTPIMCGGDWPLLRVMKGIFEGGLESADRGGTVDEEDVEGDWGEELDINVDGMENRDIEDILAAAEAGEEENDEEGGWGLEDLVLPPELDTPKASANARSSVFVTPPQGMPVSQSWSQKSSLAAEQAAAGSFDTAMRLLHRQLGIKNFTPLKSMFLDLFNGSHSYLRAFSSCPVVPLAIERGWSESSSPNVRSPPALVYDFSQLDEKLKSGYKATTTGKFTEALRLFLSILHTIPLVVVETRREVDEVKELIVIVKEYVLGLQMELKRREMKDDPVRQQELAAYFTHCNLQTPHLRLALLSAMGVCYKAKNLATASNFARRLLETSPVDSQAKMARQVVQAAERNMTDETKLNYDFRNPFVVCGSTYVPIYRGQKDVSCPYCTARFVPNQEGNICTVCDLAVIGADASGLLCSPSQVR

binding [3]: binds
B2: GFP:α1-COP (protein, UniProt Q94A40 1-1216)
chain: B1 chain

binding [3]: no binding
B3: GFP:α1-COP^G486D (protein, UniProt Q94A40 1-1216)
chain: B1 chain with G486D

binding [2]: no binding
B4: α1-COP^G486D:cVenus (protein, UniProt Q94A40 1-1216)
chain: B1 chain with G486D
